Results are given in words; binding and its absence hold for the method and conditions named. Binding seen in cells or lysates may run through a third protein. Some binding calls cover weakened binding; strength is not graded here.
Molecular target: Flag-tagged ITCH (UniProt Q96J02)
Test: co-IP

Amino acid sequences for entries named in this document (tags omitted).
UniProt Q96J02: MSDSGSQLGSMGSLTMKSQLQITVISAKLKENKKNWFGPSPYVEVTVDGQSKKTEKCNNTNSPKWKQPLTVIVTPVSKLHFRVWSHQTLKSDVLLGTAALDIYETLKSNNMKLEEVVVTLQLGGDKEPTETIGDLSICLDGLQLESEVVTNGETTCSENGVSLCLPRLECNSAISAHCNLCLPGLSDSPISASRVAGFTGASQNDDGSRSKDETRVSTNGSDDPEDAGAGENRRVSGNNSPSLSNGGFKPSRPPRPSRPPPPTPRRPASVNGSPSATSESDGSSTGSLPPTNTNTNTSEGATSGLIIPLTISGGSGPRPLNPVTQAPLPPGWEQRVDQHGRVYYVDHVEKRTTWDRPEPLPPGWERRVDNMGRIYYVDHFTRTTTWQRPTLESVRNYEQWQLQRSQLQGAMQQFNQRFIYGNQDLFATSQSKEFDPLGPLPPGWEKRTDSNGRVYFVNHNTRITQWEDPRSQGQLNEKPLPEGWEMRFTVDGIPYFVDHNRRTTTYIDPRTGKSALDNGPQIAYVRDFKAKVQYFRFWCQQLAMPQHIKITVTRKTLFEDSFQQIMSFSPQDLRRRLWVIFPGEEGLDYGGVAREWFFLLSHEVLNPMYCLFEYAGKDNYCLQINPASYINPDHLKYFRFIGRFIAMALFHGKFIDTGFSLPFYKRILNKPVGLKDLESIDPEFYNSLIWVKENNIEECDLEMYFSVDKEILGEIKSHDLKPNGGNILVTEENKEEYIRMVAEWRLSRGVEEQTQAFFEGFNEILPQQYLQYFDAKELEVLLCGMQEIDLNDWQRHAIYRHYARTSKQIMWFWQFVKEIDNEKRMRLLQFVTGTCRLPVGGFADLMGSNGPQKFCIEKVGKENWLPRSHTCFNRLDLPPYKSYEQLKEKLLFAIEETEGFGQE

binding: binds
B1: JUND, endogenous (protein, UniProt P17535 1-347)
chain: METPFYGDEALSGLGGGASGSGGSFASPGRLFPGAPPTAAAGSMMKKDALTLSLSEQVAAALKPAAAPPPTPLRADGAPSAAPPDGLLASPDLGLLKLASPELERLIIQSNGLVTTTPTSSQFLYPKVAASEEQEFAEGFVKALEDLHKQNQLGAGAAAAAAAAAAGGPSGTATGSAPPGELAPAAAAPEAPVYANLSSYAGGAGGAGGAATVAFAAEPVPFPPPPPPGALGPPRLAALKDEPQTVPDVPSFGESPPLSPIDMDTQERIKAERKRLRNRIAASKCRKRKLERISRLEEKVKTLKSQNTELASTASLLREQVAQLKQKVLSHVNSGCQLLPQHQVPAY
